Data from US20190269614A1, “CHEWABLE TABLET CONTAINING VITAMIN C SODIUM AND PREPARATION METHOD THEREOF” (GUANGXI SANPOTEL HEALTH INDUSTRY CO. LTD, priority 2016, published 2019).
Some compounds share one wording; it may come from a single statement. Where a SMILES comes first, the peptide text is derived from it.

assay: Comparison of sweeteners (flavoring agent selection) in the chewable tablet; conditions: sweetener 10-30 parts in combination with mint essence

Taste and flavor, taste and flavor were good:
COC(=O)[C@H](Cc1ccccc1)NC(=O)[C@@H](N)CC(=O)O [aspartame] (H-Asp-Phe-OMe)
COC(=O)[C@H](Cc1ccccc1)NC(=O)[C@H](CC(=O)O)NCCC(C)(C)C [neotame]
mogroside
